# Record: PubChem BioAssay AID652259 (Drosophila RNAi Screening Center, 2013)
# Aim: 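Identify new Wingless signalling regulators in fly cells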 (primary screen)
# System: Drosophila clone 8 imaginal disc epithelial cells
# Knock-down reagent: long dsRNA against Drosophila genes
# Conditions: pathway stimulated by co-transfected Wingless expression plasmid
# Measurement: 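Dual luciferase reads per well after Wingless plasmid stimulation: reporter firefly light and Renilla control light; activity is firefly divided by Renilla, a ratio not deposited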
# Direction: firefly reporter light: higher = more Wg reporter light, before normalisation; Renilla control light: higher = more transfected or surviving cells
# Hit rule: 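a knock-down is a candidate when at least two out of four statistical tests show it departing from its plate mean; one test alone signals a weak candidate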
# Meaning of the calls: active = candidate regulator (raises or lowers reporter); inactive = not a candidate
# In all, the deposit lists about 22,000 reagents; below is a random part of those that have a named target and a result. Of all reagents, 233 (1.1%) were called active. 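Light values are raw, unnormalised plate reads; the ratio scores behind the reporter calls were not deposited.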 A plus sign joins genes that one reagent is predicted to hit. Not stated in the record: the amount of reagent, the time to read-out, the dose of the treatment.
Gene,dsRNA,"reporter change call, replicate 1","firefly reporter light, replicate 1","firefly reporter light, replicate 2","Renilla control light, replicate 1","Renilla control light, replicate 2",activity call
SK (GeneID 31456),DRSC17387,,3058,,656,,inactive
SK (GeneID 31456),DRSC17751,,24800,,11334,,inactive
SK (GeneID 31456),DRSC17887,,12409,,9205,,inactive
SK (GeneID 31456),DRSC17888,,21020,,12502,,inactive
SK (GeneID 31456),DRSC18353,,3155,5064,896,1640,inactive
SK (GeneID 31456),DRSC21840,,7.49e5,7.65e5,1.22e5,1.37e5,inactive
RhoGAP54D (GeneID 36996),DRSC06990,,5561,,1507,,inactive
CG4733 (GeneID 42368),DRSC15634,,15336,,3580,,inactive
CG15701 (GeneID 36801),DRSC06572,,3610,,1884,,inactive
bys (GeneID 31701),DRSC18748,,2457,6001,1049,2544,inactive
Zasp52 (GeneID 36740),DRSC06269,,5268,,1691,,inactive
Zasp52 (GeneID 36740),DRSC07121,,5760,,2840,,inactive
CG16813 (GeneID 34724),DRSC02520,,3328,9316,1355,4284,inactive
Def (GeneID 36047),DRSC07398,,3253,7872,1201,2856,inactive
CG31546 (GeneID 40691),DRSC12317,,8027,,2323,,inactive
CG42493 (GeneID 8674013),DRSC05309,,19563,,16074,,inactive
CG9302 (GeneID 34750),DRSC03191,,5953,,535,,inactive
Nazo (GeneID 40976),DRSC14343,,24420,,4949,,inactive
BubR1 (GeneID 35522),DRSC04838,,3014,7324,762,2235,inactive
CG5214 (GeneID 41360),DRSC15739,,21028,,5158,,inactive
CG5214 (GeneID 41360),DRSC22842,,5.91e5,6.96e5,1.85e5,1.57e5,inactive
MESR4 (GeneID 36986),DRSC06901,,9236,,1354,,inactive
KP78a + KP78b,DRSC16721,,16916,,3853,,inactive
KP78a + KP78b,DRSC16722,,15360,,3090,,inactive
flw (GeneID 44289),DRSC17992,,20379,,15206,,inactive
flw (GeneID 44289),DRSC18774,,13858,,10377,,inactive
CR32011 + CR32010 + PlexB + 1 more,DRSC21664,,5.58e5,5.12e5,2.16e5,1.98e5,inactive
Rnb (GeneID 43513),DRSC16325,Wg reporter activity lowered,650,1123,768,1611,active
CG3713 (GeneID 50365),DRSC18648,,22811,,20551,,inactive

An excerpt from above, limited to “Renilla control light, replicate 1”.
flw (GeneID 44289) [DRSC17992]: 15206
flw (GeneID 44289) [DRSC18774]: 10377
CR32011 + CR32010 + PlexB + 1 more [DRSC21664]: 2.16e5
